Experimental data from article PMC7819943, “Rice protein-binding microarrays: a tool to detect cis-acting elements near promoter regions in rice”.
This is one part of the list.

Protein sequences, listed by entry. Tags and fused reporters are not part of them.
UniProt Q0JBA9, entry or part of it: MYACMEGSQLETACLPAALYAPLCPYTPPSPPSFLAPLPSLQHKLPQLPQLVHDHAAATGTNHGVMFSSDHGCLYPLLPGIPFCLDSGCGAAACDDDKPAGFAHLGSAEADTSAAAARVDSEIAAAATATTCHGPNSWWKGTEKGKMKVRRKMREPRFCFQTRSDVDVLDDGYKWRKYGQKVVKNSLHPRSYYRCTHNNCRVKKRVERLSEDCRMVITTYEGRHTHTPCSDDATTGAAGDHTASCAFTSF

biological target: OsWRKY34 (Oryza sativa, UniProt Q0JBA9 1-250); assay: protein-binding microarray (RPBM); PBS, 2% BSA, 51.3 ng/ul salmon testes DNA, 50 uM zinc acetate, 200 nM TF, 25 C, 1 h; high values mean tight binding; settings: protein: recombinant; tags: N-terminal polyhistidine and DsRed monomer fusion (pET32a); label: CyDye5-dUTP incorporated in the synthesized complementary strand; 3' TTTTT single-stranded linker to array surface; dsDNA, one strand shown
Outline: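 Transcription factors were each fused at the N-terminus to a polyhistidine tag plus DsRed and expressed in E. coli BL21-CodonPlus before Ni–NTA purification. Binding to a double-stranded custom Agilent array was carried out with 200 nM protein at 25 °C for 1 h in PBS, 2% BSA, salmon testes DNA and 50 µM zinc acetate. The binding signal is per-feature fluorescence intensity, in arbitrary units, on an Axon 4000B scanner.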

Sequence	binding signal
CCCATGGTTTCCCTGTAGGCCACAGTACTACGACCTATACCGGAGTCACCTAGTGCAG	8150 fluorescence intensity (a.u.)
GTTGGGGAGCGCGGCGGGGCGTCGGAGGAGTTGACAGGAGCGGAGTCACCTAGTGCAG	8910 fluorescence intensity (a.u.)
TTTGGCGGGGTCGATACAGGTTGAAGGAATGGATAACTCACGGAGTCACCTAGTGCAG	13500 fluorescence intensity (a.u.)
CTCTCCTGCCTGCTTCGTCTACTCCTCTCCCAACTCCGATCGGAGTCACCTAGTGCAG	12600 fluorescence intensity (a.u.)
AAATTACGCTTTTGGCCACATATTTGCTCTAAGCTTTTTCCGGAGTCACCTAGTGCAG	8270 fluorescence intensity (a.u.)
GTGACTTCCGTTTTCACCGCTCAAGCGAAACTTTATCCTCCGGAGTCACCTAGTGCAG	8590 fluorescence intensity (a.u.)
GCAAATCATCGCCTGTATTGTCCTGCCCTATCACTGCACACGGAGTCACCTAGTGCAG	8220 fluorescence intensity (a.u.)
TTAATACCTGCTTTGGGGTGGGAGTTGGGAGACTATCTCACGGAGTCACCTAGTGCAG	11500 fluorescence intensity (a.u.)
CCTTCTCAGCGACGTGTGGCATCTTGCTCCAGATCTTCTACGGAGTCACCTAGTGCAG	10400 fluorescence intensity (a.u.)
TACTACGTAAAGTTTATTTATTTTTTATGTTCGTATGATCCGGAGTCACCTAGTGCAG	9580 fluorescence intensity (a.u.)
GAGCACTACATCTCTCGTCCAACGCCAAACTCTCTCTCTCCGGAGTCACCTAGTGCAG	13400 fluorescence intensity (a.u.)
ACTCTCCGCGAAGTTCATTTCCCCTCAAATTTAATATTTTCGGAGTCACCTAGTGCAG	8550 fluorescence intensity (a.u.)
CTGTATTTGACTGTTACTGCTTTTGGATTTTGTTTCATTTCGGAGTCACCTAGTGCAG	10800 fluorescence intensity (a.u.)
GATGCGAAACGTGGCCCGAGCCTCCGCCTACACCGACCCGCGGAGTCACCTAGTGCAG	8390 fluorescence intensity (a.u.)
TCTTTTCCACCGCTTTTTTTTTTGTTTCCTCACGTGGTTTCGGAGTCACCTAGTGCAG	8320 fluorescence intensity (a.u.)
TCGCGCGTGTCACTGGGTTTGGGTTGGGTCTCTCTCTCTCCGGAGTCACCTAGTGCAG	18400 fluorescence intensity (a.u.)
GGTTTCGTAGTTTGAGTATTTTTTTTATCAATTCATTCCCCGGAGTCACCTAGTGCAG	9810 fluorescence intensity (a.u.)
GAGAGGTAGCGGGCTGGGTTAGGACTGAAATGGAACGAATCGGAGTCACCTAGTGCAG	8550 fluorescence intensity (a.u.)
CAGCGTGTGTGCACTTACCTGCTCGATCGATCTGCACCTCCGGAGTCACCTAGTGCAG	8900 fluorescence intensity (a.u.)
GTGCATTCCCTACTGTTATCACACTTGCCAACAGCGCTGGCGGAGTCACCTAGTGCAG	8520 fluorescence intensity (a.u.)
CTACCCAATCCATCCATCCGCCGCGCCTCTCTCTCCTTCACGGAGTCACCTAGTGCAG	11000 fluorescence intensity (a.u.)
CGCGTATGCGCGGGCTACTTTCCTAGTTTTCTATAAAACCCGGAGTCACCTAGTGCAG	8160 fluorescence intensity (a.u.)
TCAAACGCACGCCACGCGACGCGACGCAGCCCAGCTCAACCGGAGTCACCTAGTGCAG	8660 fluorescence intensity (a.u.)
CCGGGCTCCGTCGCCACGTACGCGGCCGGCTCTCCCTATACGGAGTCACCTAGTGCAG	9030 fluorescence intensity (a.u.)
ACATCTTATCTACAACGTGTCTTTTATTTCCACCATGTACCGGAGTCACCTAGTGCAG	8300 fluorescence intensity (a.u.)
GCTATGTAATGTCCCATCCGTGCTGTATAGTTTGGGTTTTCGGAGTCACCTAGTGCAG	17200 fluorescence intensity (a.u.)
TCCGCATCCAACTTTGATTGTCCGTCTTATTTGAAATTTTCGGAGTCACCTAGTGCAG	10800 fluorescence intensity (a.u.)

Shown in markdown: part of the list above

| Sequence | binding signal |
| --- | --- |
| AAATTACGCTTTTGGCCACATATTTGCTCTAAGCTTTTTCCGGAGTCACCTAGTGCAG | 8270 fluorescence intensity (a.u.) |
| TCGCGCGTGTCACTGGGTTTGGGTTGGGTCTCTCTCTCTCCGGAGTCACCTAGTGCAG | 18400 fluorescence intensity (a.u.) |
| GCTATGTAATGTCCCATCCGTGCTGTATAGTTTGGGTTTTCGGAGTCACCTAGTGCAG | 17200 fluorescence intensity (a.u.) |

(continued)

Sequence	binding signal
ATTCAGTTAATTTTGACTTTTTTTCCATCAATCATCAAGACGGAGTCACCTAGTGCAG	9670 fluorescence intensity (a.u.)
TCCCTCTGCACATCTTACTACCTCTCTGAGTCGCCAAATTCGGAGTCACCTAGTGCAG	8190 fluorescence intensity (a.u.)
TTCCTTTTGTTTCTTCCATTCCAGGCCCAATTGCCGAAGGCGGAGTCACCTAGTGCAG	10500 fluorescence intensity (a.u.)
TACACGCTTGTCCTAAACTTATATGCTCGGTTAGATTTTTCGGAGTCACCTAGTGCAG	8910 fluorescence intensity (a.u.)
TGATCGATCACACACGTTGCCATCACCAACTTTTCACAGACGGAGTCACCTAGTGCAG	9990 fluorescence intensity (a.u.)
TAGTACTGGTTCTTTGTCCATTGTTGACCCATTTTTCCACCGGAGTCACCTAGTGCAG	10600 fluorescence intensity (a.u.)
CTACTTACAATTTAAGTCAACATCAGTTCCTACACACGTTCGGAGTCACCTAGTGCAG	8110 fluorescence intensity (a.u.)
ACCTGGTCAAACTTAAAACAGTTTGACTTTGACTAAAGCCCGGAGTCACCTAGTGCAG	12100 fluorescence intensity (a.u.)
CGGAACTCCACCAGCAGCAGTCACGCACGTCTCTCTCTCTCGGAGTCACCTAGTGCAG	8630 fluorescence intensity (a.u.)
CCCACTATCATCCGTCATCCGTGCAACGCACGGGCATTATCGGAGTCACCTAGTGCAG	9340 fluorescence intensity (a.u.)
GTTTGCAGTTGCAGACACAGCCCGGCATCTTCCATCTTTTCGGAGTCACCTAGTGCAG	8490 fluorescence intensity (a.u.)
ATCACATGACTACCTAACAAAATATTTATTTTTCTTTTTTCGGAGTCACCTAGTGCAG	8760 fluorescence intensity (a.u.)
GTAACTATTATGTGCACCGTGTCCTTCTTTAATATAGTTGCGGAGTCACCTAGTGCAG	9190 fluorescence intensity (a.u.)
AGATATTTTCGCTGACTCGTTGACCCACCACCCATCCCCACGGAGTCACCTAGTGCAG	12000 fluorescence intensity (a.u.)
CCTCGCCCTCGAGCCCTCGATCTCCACATCTCTCTCGCGCCGGAGTCACCTAGTGCAG	10900 fluorescence intensity (a.u.)
TTTACTGCCATTCTTTTTTTTAGCGCTGCTCTCACTTGATCGGAGTCACCTAGTGCAG	8920 fluorescence intensity (a.u.)
CATCTTCCAAGGCGGGTAATTTTCAGAGCTATTGCATTGACGGAGTCACCTAGTGCAG	10400 fluorescence intensity (a.u.)
ATGCATCCGATGACCTCATTCTTTCCTCTCTTTTCTGATACGGAGTCACCTAGTGCAG	9160 fluorescence intensity (a.u.)
GCTAGTTTTGCTTCATTTCCCTGCCTGTGAGTGGTGCAAGCGGAGTCACCTAGTGCAG	8630 fluorescence intensity (a.u.)
GAGGACTGGGCGAAGGGGTGGAAGAAAATGTGGTTGTCGACGGAGTCACCTAGTGCAG	8580 fluorescence intensity (a.u.)
CGAACCCTAACGCACCCCGCACACCGCCAACCAACTAAACCGGAGTCACCTAGTGCAG	8110 fluorescence intensity (a.u.)
GACCACAATCTATCTACCCTATAATTCACCAACTGATGTTCGGAGTCACCTAGTGCAG	9430 fluorescence intensity (a.u.)
TTCGTCCCGCGCCACAACCCCAACCTCAGCGAGCTCCGCGCGGAGTCACCTAGTGCAG	9150 fluorescence intensity (a.u.)
CTGTTGGTCAATCGCCGAACTTACCGCCGCGCCGGCCATGCGGAGTCACCTAGTGCAG	9410 fluorescence intensity (a.u.)
GCAGATCCTTATGTTGGACTTGCCTTTCTTCCGTCCACTTCGGAGTCACCTAGTGCAG	8500 fluorescence intensity (a.u.)
TCCACTCTGTTGCCTACCGTTGCTCCACACGCCCACCTCTCGGAGTCACCTAGTGCAG	9620 fluorescence intensity (a.u.)
CAAATTTTACTATACATCAGTCAATGTTGGTTCGTTCGTTCGGAGTCACCTAGTGCAG	9660 fluorescence intensity (a.u.)
